Values from PubChem BioAssay AID686943 (Drosophila RNAi Screening Center, 2013)
In all, the deposit lists about 23,000 reagents; shown is an unselected part of those that have a named target and a result. 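Extra replicates exist only for a retested subset of genes; insulin dose and duration not given; both raised and lowered dpERK matter.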 A plus sign joins genes that one reagent is predicted to hit. Not all columns of the deposit are shown. Not given: the amount of reagent, the time to read-out.

Test: 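Search across the genome for regulators of signalling from receptor tyrosine kinase to ERK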 (primary screen)
Cells: Drosophila S2R+ haemocyte-like cells expressing YFP-tagged ERK (Rolled)
Reagents: long dsRNA against Drosophila genes
Challenge: insulin stimulation versus unstimulated cells; dose and duration not given
Measured: 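Per-plate z-scores of phospho-ERK immunostaining normalised to YFP-tagged ERK, measured with and without insulin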
Scale: replicate 1, z-score of dpERK with insulin: higher = more active ERK per ERK-YFP after insulin

replicate 1, z-score of dpERK with insulin, by gene and reagent
Prosbeta4R1 (GeneID 33449): DRSC00502 -0.95
CAH9 (GeneID 43264): DRSC15963 0.06
AstA-R2 (GeneID 43393): DRSC14171 0
spab (GeneID 35901): DRSC07112 0.7
VepD (GeneID 117331): DRSC22318 0.29
CG11456 (GeneID 40309): DRSC11665 0.58
dally (GeneID 39013): DRSC08954 0.26; DRSC11338 0.13
Archease (GeneID 42551): DRSC16025 0.39
CG42650 (GeneID 10178825): DRSC12462 -0.51
mth (GeneID 38058): DRSC08725 -0.05
Mkk4 (GeneID 41020): DRSC16739 0.35
CG18787 + CG18789: DRSC02698 -0.82
CG17385 (GeneID 36603): DRSC06664 1.57
Gba1a (GeneID 42796): DRSC21494 0.67
Sidpn (GeneID 35168): DRSC02056 0.07
Pph13 (GeneID 33239): DRSC00775 -0.65
DAT (GeneID 36849): DRSC07394 0.33
CG30371 (GeneID 35806): DRSC06835 -0.19
Ir94d (GeneID 7354412): DRSC21568 -0.28
CG5665 (GeneID 40243): DRSC11783 0.53
CG7218 (GeneID 42165): DRSC16216 0.62
lncRNA:CR42862 (GeneID 10178964): DRSC08348 -0.6
Nup37 (GeneID 43040): DRSC14419 0.67
CG15673 (GeneID 37459): DRSC04263 0.03
upd3 (GeneID 3346149): DRSC19636 0.78; DRSC19968 1.01; DRSC22169 0.82
Arp5 (GeneID 42173): DRSC16350 0.54
CG4822 (GeneID 33170): DRSC00669 -0.42
RpL4 (GeneID 43349): DRSC16833 -3.19
CG42455 + vnc: DRSC09867 1.97
Polr2K (GeneID 5740790): DRSC05535 3.13
CG17359 (GeneID 39549): DRSC10265 0.29
CG32117 (GeneID 317864): DRSC21652 0.68
scrt (GeneID 38469): DRSC08736 -4.33
CycB3 (GeneID 42971): DRSC16618 -0.33

3 entries from above, reformatted:
{"Gene":"VepD (GeneID 117331)","DRSC id":"DRSC22318","replicate 1, z-score of dpERK with insulin":0.29}
{"Gene":"CG11456 (GeneID 40309)","DRSC id":"DRSC11665","replicate 1, z-score of dpERK with insulin":0.58}
{"Gene":"dally (GeneID 39013)","DRSC id":"DRSC08954","replicate 1, z-score of dpERK with insulin":0.26}

Further results:
replicate 1, z-score of dpERK with insulin, by gene and reagent
nur (GeneID 318957): DRSC01342 0.68
CG33307 (GeneID 2768914): DRSC01349 1.23
CG31473 (GeneID 318753): DRSC15443 0.35
ArgRS (GeneID 32539): DRSC20138 0.04
gcm (GeneID 34277): DRSC03536 0.66
CG3376 (GeneID 37884): DRSC04362 -0.57
CG13634 (GeneID 42951): DRSC14635 -0.6
Gr63a (GeneID 38453): DRSC08438 1.07
Polr1C (GeneID 33712): DRSC02719 -0.17
CG5877 (GeneID 32455): DRSC19963 -0.03
CG1503 (GeneID 33090): DRSC20512 0.01
CG13623 (GeneID 42926): DRSC14625 -2.12
CG42490 (retired record) (GeneID 8674118): DRSC01649 0.59
Psa (GeneID 38175): DRSC08152 -0.63
CG34155 (GeneID 4379867): DRSC13991 -0.09
moon (GeneID 32176): DRSC19497 -0.67
rdhB (GeneID 42614): DRSC16190 -0.51
Sfxn1-3 (GeneID 40552): DRSC12183 -0.96
CG14014 (GeneID 33784): DRSC02345 -0.2
Uqcc1 + CG9948: DRSC09690 -0.4
